Assay results: article PMC8456587
These are yes or no findings as the source states them, for the method shown. Binding seen in cells or lysates may run through a third protein. Some binding calls cover weakened binding; strength is not graded here. For some of these results: Where a sequence is shown, tags or fusion partners need not be part of it.

By UniProt entry, the sequences of proteins in these tests, tags left out.
UniProt P26368: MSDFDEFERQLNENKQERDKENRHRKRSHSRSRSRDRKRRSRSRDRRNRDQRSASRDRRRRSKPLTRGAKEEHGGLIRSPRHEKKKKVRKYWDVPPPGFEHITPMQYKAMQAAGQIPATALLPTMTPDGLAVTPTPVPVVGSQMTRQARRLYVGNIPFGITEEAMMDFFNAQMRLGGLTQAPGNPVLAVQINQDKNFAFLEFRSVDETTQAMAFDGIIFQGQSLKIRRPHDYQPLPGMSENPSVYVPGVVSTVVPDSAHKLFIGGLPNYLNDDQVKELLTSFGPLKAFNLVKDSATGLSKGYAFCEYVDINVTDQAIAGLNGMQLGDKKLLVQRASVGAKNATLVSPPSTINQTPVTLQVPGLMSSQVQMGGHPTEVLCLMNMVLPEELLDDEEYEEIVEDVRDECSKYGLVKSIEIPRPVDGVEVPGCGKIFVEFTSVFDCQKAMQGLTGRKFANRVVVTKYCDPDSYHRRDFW
UniProt P26369: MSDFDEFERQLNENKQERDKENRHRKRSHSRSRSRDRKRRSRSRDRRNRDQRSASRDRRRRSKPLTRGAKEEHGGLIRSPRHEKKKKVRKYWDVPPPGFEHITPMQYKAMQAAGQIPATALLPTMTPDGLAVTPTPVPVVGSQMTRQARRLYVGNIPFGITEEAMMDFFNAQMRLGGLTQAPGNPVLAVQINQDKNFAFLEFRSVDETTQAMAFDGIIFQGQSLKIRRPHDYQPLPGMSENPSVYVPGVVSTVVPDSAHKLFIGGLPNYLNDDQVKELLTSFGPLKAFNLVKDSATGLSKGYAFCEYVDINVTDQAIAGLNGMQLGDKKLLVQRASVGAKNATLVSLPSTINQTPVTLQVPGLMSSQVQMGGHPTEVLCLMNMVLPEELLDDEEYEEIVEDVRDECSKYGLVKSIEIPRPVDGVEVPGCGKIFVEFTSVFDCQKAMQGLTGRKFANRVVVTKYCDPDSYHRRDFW

T1: GST-SC35 (UniProt Q01130)
T1 sequence: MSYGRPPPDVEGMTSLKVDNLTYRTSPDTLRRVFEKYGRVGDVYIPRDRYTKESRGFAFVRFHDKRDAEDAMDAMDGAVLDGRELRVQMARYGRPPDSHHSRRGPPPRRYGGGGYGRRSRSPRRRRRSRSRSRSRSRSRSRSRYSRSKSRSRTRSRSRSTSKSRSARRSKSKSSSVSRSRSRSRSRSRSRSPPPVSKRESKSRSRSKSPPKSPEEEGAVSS


Experiments:
[1] = molecular target: U2AF65 (U2 auxiliary factor 65 kDa subunit), endogenous in 293T cells (human (endogenous in 293T)) (UniProt P26368); test: co-IP; 293T cells transfected with GST-L-DL; immunoprecipitation with anti-U2AF65 antibody; immunoblot
[2] = molecular target: U2AF65 (U2 auxiliary factor 65 kDa subunit), endogenous in N2a cells (mouse (endogenous in N2a)) (UniProt P26369); test: co-IP; control or L-DL knockout N2a cell lysates; immunoprecipitation with anti-U2AF65 antibody; immunoblot and densitometry (n = 3)
GST-SC35 = molecular target: T1, GST-SC35; test: pull-down; co-affinity precipitation: GST-L-DL, GST-SC35 or GST control expressed in 293T cells; 500 μg lysate in GST-binding buffer (PBS, 0.1 mM EDTA, 0.1% Triton X-100, pH 7.4) on GST agarose beads overnight at 4 °C; washes with 0.1% SDS, 0.3% deoxycholate, 0.3% NP-40; immunoblot of endogenous partners

binding [2]	Molecule	other results
–	SF3B3 (splicing factor 3b subunit 3), endogenous in 293T cells (from UniProt Q15393 1-1217)	binding [1]: binds
binds	SF3B1 (splicing factor 3b subunit 1), endogenous in N2a cells (protein, UniProt Q99NB9 1-1304) MAKIAKTHEDIEAQIREIQGKKAALDEAQGVGLDSTGYYDQEIYGGSDSRFAGYVTSIAATELEDDDDDYSSSTSLLGQKKPGYHAPVALLNDIPQSTEQYDPFAEHRPPKIADREDEYKKHRRTMIISPERLDPFADGGKTPDPKMNARTYMDVMREQHLTKEEREIRQQLAEKAKAGELKVVNGAAASQPPSKRKRRWDQTADQTPGATPKKLSSWDQAETPGHTPSLRWDETPGRAKGSETPGATPGSKIWDPTPSHTPAGAATPGRGDTPGHATPGHGGATSSARKNRWDETPKTERDTPGHGSGWAETPRTDRGGDSIGETPTPGASKRKSRWDETPASQMGGSTPVLTPGKTPIGTPAMNMATPTPGHIMSMTPEQLQAWRWEREIDERNRPLSDEELDAMFPEGYKVLPPPAGYVPIRTPARKLTATPTPLGGMTGFHMQTEDRTMKSVNDQPSGNLPFLKPDDIQYFDKLLVDVDESTLSPEEQKERKIMKLLLKIKNGTPPMRKAALRQITDKAREFGAGPLFNQILPLLMSPTLEDQERHLLVKVIDRILYKLDDLVRPYVHKILVVIEPLLIDEDYYARVEGREIISNLAKAAGLATMISTMRPDIDNMDEYVRNTTARAFAVVASALGIPSLLPFLKAVCKSKKSWQARHTGIKIVQQIAILMGCAILPHLRSLVEIIEHGLVDEQQKVRTISALAIAALAEAATPYGIESFDSVLKPLWKGIRQHRGKGLAAFLKAIGYLIPLMDAEYANYYTREVMLILIREFQSPDEEMKKIVLKVVKQCCGTDGVEANYIKTEILPPFFKHFWQHRMALDRRNYRQLVDTTVELANKVGAAEIISRIVDDLKDEAEQYRKMVMETIEKIMGNLGAADIDHKLEEQLIDGILYAFQEQTTEDSVMLNGFGTVVNALGKRVKPYLPQICGTVLWRLNNKSAKVRQQAADLISRTAVVMKTCQEEKLMGHLGVVLYEYLGEEYPEVLGSILGALKAIVNVIGMHKMTPPIKDLLPRLTPILKNRHEKVQENCIDLVGRIADRGAEYVSAREWMRICFELLELLKAHKKAIRRATVNTFGYIAKAIGPHDVLATLLNNLKVQERQNRVCTTVAIAIVAETCSPFTVLPALMNEYRVPELNVQNGVLKSLSFLFEYIGEMGKDYIYAVTPLLEDALMDRDLVHRQTASAVVQHMSLGVYGFGCEDSLNHLLNYVWPNVFETSPHVIQAVMGALEGLRVAIGPCRMLQYCLQGLFHPARKVRDVYWKIYNSIYIGSQDALIAHYPRIYNDDKNTYIRYDLDYIL	–
binds	SF3B3 (splicing factor 3b subunit 3), endogenous in N2a cells (protein, UniProt Q921M3 1-1217) MFLYNLTLQRATGISFAIHGNFSGTKQQEIVVSRGKILELLRPDPNTGKVHTLLTVEVFGVIRSLMAFRLTGGTKDYIVVGSDSGRIVILEYQPSKNMFEKIHQETFGKSGCRRIVPGQFLAVDPKGRAVMISAIEKQKLVYILNRDAAARLTISSPLEAHKANTLVYHVVGVDVGFENPMFACLEMDYEEADNDPTGEAAANTQQTLTFYELDLGLNHVVRKYSEPLEEHGNFLITVPGGSDGPSGVLICSENYITYKNFGDQPDIRCPIPRRRNDLDDPERGMIFVCSATHKTKSMFFFLAQTEQGDIFKITLETDEDMVTEIRLKYFDTVPVAAAMCVLKTGFLFVASEFGNHYLYQIAHLGDDDEEPEFSSAMPLEEGDTFFFQPRPLKNLVLVDELDSLSPILFCQIADLANEDTPQLYVACGRGPRSSLRVLRHGLEVSEMAVSELPGNPNAVWTVRRHIEDEFDAYIIVSFVNATLVLSIGETVEEVTDSGFLGTTPTLSCSLLGDDALVQVYPDGIRHIRADKRVNEWKTPGKKTIVKCAVNQRQVVIALTGGELVYFEMDPSGQLNEYTERKEMSADVVCMSLANVPPGEQRSRFLAVGLVDNTVRIISLDPSDCLQPLSMQALPAQPESLCIVEMGGTEKQDELGERGSIGFLYLNIGLQNGVLLRTVLDPVTGDLSDTRTRYLGSRPVKLFRVRMQGQEAVLAMSSRSWLSYSYQSRFHLTPLSYETLEFASGFASEQCPEGIVAISTNTLRILALEKLGAVFNQVAFPLQYTPRKFVIHPESNNLIIIETDHNAYTEATKAQRKQQMAEEMVEAAGEDERELAAEMAAAFLNENLPESIFGAPKAGNGQWASVIRVMNPIQGNTLDLVQLEQNEAAFSVAVCRFSNTGEDWYVLVGVAKDLILSPRSVAGGFVYTYKLVNNGEKLEFLHKTPVEEVPAAIAPFQGRVLIGVGKLLRVYDLGKKKLLRKCENKHIANYISGIQTIGHRVIVSDVQESFIWVRYKRNENQLIIFADDTYPRWVTTASLLDYDTVAGADKFGNICVVRLPPNTNDEVDEDPTGNKALWDRGLLNGASQKAEVIMNYHVGETVLSLQKTTLIPGGSESLVYTTLSGGIGILVPFTSHEDHDFFQHVEMHLRSEHPPLCGRDHLSFRSYYFPVKNVIDGDLCEQFNSMEPNKQKNVSEELDRTPPEVSKKLEDIRTRYAF	–
–	L-DL (long isoform of hnRNP DL), endogenous in 293T cells (protein, UniProt O14979 1-420) MEVPPRLSHVPPPLFPSAPATLASRSLSHWRPRPPRQLAPLLPSLAPSSARQGARRAQRHVTAQQPSRLAGGAAIKGGRRRRPDLFRRHFKSSSIQRSAAAAAATRTARQHPPADSSVTMEDMNEYSNIEEFAEGSKINASKNQQDDGKMFIGGLSWDTSKKDLTEYLSRFGEVVDCTIKTDPVTGRSRGFGFVLFKDAASVDKVLELKEHKLDGKLIDPKRAKALKGKEPPKKVFVGGLSPDTSEEQIKEYFGAFGEIENIELPMDTKTNERRGFCFITYTDEEPVKKLLESRYHQIGSGKCEIKVAQPKEVYRQQQQQQKGGRGAAAGGRGGTRGRGRGQGQNWNQGFNNYYDQGYGNYNSAYGGDQNYSGYGGYDYTGYNYGNYGYGQGYADYSGQQSTYGKASRGGGNHQNNYQPY	binding (GST-SC35): binds
